These are yes or no findings as the source states them, for the method shown. Binding seen in cells or lysates may run through a third protein. Some binding calls cover weakened binding; strength is not graded here.
Columns and labels:
[1] = target: protein disulfide isomerase (PDI) (rat (endogenous in primary astrocytes of neonatal Wistar rats)) (UniProt P04785); test: co-IP; whole-cell lysates of cultured rat astrocytes (normoxic control, OGD 8 h, OGD/reperfusion), precleared with protein A-Sepharose; anti-SOD1 or anti-PDI antibody with protein A-Sepharose CL-4B overnight at 4°C; washed in Tris buffer; immunoblot
[2] = target: copper-zinc superoxide dismutase (SOD1) (rat (endogenous in primary astrocytes of neonatal Wistar rats)) (UniProt P07632); test: as above

Sequences of proteins named here, by UniProt entry; tags and fusion partners are left off. Residues count along the entry.
UniProt P04785, residues 20-509: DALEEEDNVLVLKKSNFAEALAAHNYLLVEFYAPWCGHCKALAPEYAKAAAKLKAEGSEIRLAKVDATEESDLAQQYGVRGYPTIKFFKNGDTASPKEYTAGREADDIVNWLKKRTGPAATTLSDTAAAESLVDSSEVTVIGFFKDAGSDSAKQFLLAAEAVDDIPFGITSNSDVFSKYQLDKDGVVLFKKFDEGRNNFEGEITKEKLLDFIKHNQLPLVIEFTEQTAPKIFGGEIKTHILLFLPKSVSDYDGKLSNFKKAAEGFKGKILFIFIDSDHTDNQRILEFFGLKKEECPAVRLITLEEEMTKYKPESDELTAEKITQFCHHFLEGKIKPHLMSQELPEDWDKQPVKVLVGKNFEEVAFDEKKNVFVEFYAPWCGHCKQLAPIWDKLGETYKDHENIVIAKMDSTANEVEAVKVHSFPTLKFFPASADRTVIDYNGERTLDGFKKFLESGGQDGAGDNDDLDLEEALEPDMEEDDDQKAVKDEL
UniProt P07632: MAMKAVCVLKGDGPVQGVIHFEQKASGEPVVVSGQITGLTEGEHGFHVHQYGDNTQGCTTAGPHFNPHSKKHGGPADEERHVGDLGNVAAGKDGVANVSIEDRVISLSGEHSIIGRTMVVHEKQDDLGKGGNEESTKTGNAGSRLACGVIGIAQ

| Substance | binding [1] | binding [2] |
| --- | --- | --- |
| copper-zinc superoxide dismutase (SOD1) (from UniProt P07632 1-154) | binds |  |
| protein disulfide isomerase (PDI) (from UniProt P04785 20-509) |  | binds |
